Source: PubChem BioAssay AID2685 (National Center for Advancing Translational Sciences (NCATS), 2010)
Screen size: about 320,000 compounds; about 2,100 (0.66%) were called active. This list was built around the results that the source calls inconclusive (neither active nor inactive); the mix of calls is not that of the screen. Calls follow the shape of the dose curve; as a rule, active = well fitted inhibition curve with a large enough effect in the signal ratio, with a control signal flat (not every such curve was filed as active); inconclusive = small, poorly fitted or top-dose-only effect, or effect the other way, or a change in a side signal; inactive = flat fitted curve, though single readings scatter; the % refers to the signal ratio. A potency beside an inconclusive call is a rough fit, not a confirmed value.

test: qHTS Assay for Lipid Storage Modulators in Drosophila S3 Cells; conditions: BODIPY lipid droplet fluorescence, 18-24 h, cells fed with added oleic acid; lipid storage change, negative = inhibition: at 46.1 µM (top of the series) unless noted
Procedure, shortened: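 Drosophila S3 cells loaded with oleic acid (400 uM, as added) and compounds at several concentrations; lipid droplets imaged by 488-nm laser-scanning cytometry, 500–530 nm intensity and object ratio to cell channel. Percent activity normalized to 20 uM Triacsin C.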
% is scaled to controls: 0 for no effect and ±100 for the full control effect; potency is read from the fitted curve at half-maximal effect.

Compound	lipid storage change, negative = inhibition	Potency	outcome
COC(=O)Cc1ccc(NC(=O)c2ccccc2Cl)cc1	inconclusive: 10.2%		
Cc1cc2oc(=O)cc(CN3CCOCC3)c2cc1C(C)C		inconclusive: 3.66 µM [falling, single point]	
Cc1cccc(C)c1N(CC(=O)Nc1cccc(N(C)S(C)(=O)=O)c1)S(C)(=O)=O		inconclusive: 8.2 µM [activator, partial curve, poor fit]	
O=c1[nH]c(CN2CCN(c3ccccc3)CC2)nc2scc(-c3ccccc3)c12	inconclusive: -47.2%		
C=CCOC(=O)C1=C(C)N=C2SCCC(=O)N2C1c1ccc(OC(=O)c2ccco2)cc1 (stereo not given)	inconclusive: 15.1%		
Cc1cnc(NC(=O)Cc2ccccc2F)s1		inconclusive: 29.1 µM [activator, single point]	
c1ccc(CN2CCOCC2)cc1	inconclusive: -156%		
C#CCOCCOCCOCCNc1nc(N2CCN(C(=O)CCCCCCCCCCNC(=O)[C@@H](CCSC)n3cc(CCO)nn3)CC2)nc(N2CCN(C(=O)CCCCCCCCCCNC(=O)[C@H](CCC(=O)O)n3cc(CCCCCN)nn3)CC2)n1		inconclusive: 6.51 µM [activator, single point]	
CCOC(=O)C(C)Sc1nnc2c3ccccc3n(C)c2n1 (stereo not given)		inconclusive: 29.1 µM [falling, single point]	
Cn1c(SCC(=O)NCc2ccco2)nnc1-c1ccccc1	inactive: -2.43%		
CNC(=S)N/N=C/c1c(C)c(C(=O)c2ccc(F)cc2)n2ccccc12	inconclusive: -93.7%		
CCc1ccc(N/C(=N/c2nc(C)cc(C)n2)NC(C)=O)cc1	inconclusive: 12.3%		
C=CCOc1ccccc1/C=C/C(=O)O	inconclusive: 5%		
CCCCN(CCCC)S(=O)(=O)c1ccc(NC(=O)Cc2cccs2)cc1	inconclusive: 49.3%		
Cc1ccc(OCC(=O)O/N=C(\N)c2ccccn2)cc1C	inconclusive: 7.84%		
Cc1ccc(N(CC(=O)N2CCCC2)S(C)(=O)=O)c(C)c1	inconclusive: -2.77%		
COC(=O)c1ccccc1NC(=O)CNc1cc(OC)c(OC)cc1C		inconclusive: 16.4 µM [falling, single point]	
Nc1ccc(C(=O)OCC(=O)N2c3ccccc3Sc3ccccc32)cc1[N+](=O)[O-]	inconclusive: 25.6%		
Nc1ccc2sc(N)nc2c1	inconclusive: 12.1%		
NC(=O)N=Nc1c(O)[nH]c2ccc([N+](=O)[O-])cc12		inconclusive: 29.1 µM [cytotoxic, single point]	
CC(C)NC(=O)c1ccc2c(c1)N(CC(=O)N1CCCCC1)C(=O)C(C)(C)O2	inconclusive: 31.3%		
CCCc1cc(=O)oc2cc(OCC(=O)NCCc3c[nH]c4ccccc34)ccc12		inconclusive: 16.4 µM [falling, partial curve, poor fit]	
Cc1nc2ccc(NC(=O)[C@@H](NC(=O)c3c(F)cccc3F)C(C)C)cc2s1		inconclusive: 29.1 µM [falling, single point]	
COc1ccc(C(=O)/C=C/c2cccs2)c(OC(=O)c2cccc([N+](=O)[O-])c2)c1	inconclusive: 9.46%		
COc1ccc(N(CC(=O)O)S(C)(=O)=O)cc1OC	inconclusive: -29.2%		

Gathered by group: those above containing an NH in an aromatic ring
Compound	lipid storage change, negative = inhibition	Potency	outcome
O=c1[nH]c(CN2CCN(c3ccccc3)CC2)nc2scc(-c3ccccc3)c12	inconclusive: -47.2%		
NC(=O)N=Nc1c(O)[nH]c2ccc([N+](=O)[O-])cc12		inconclusive: 29.1 µM [cytotoxic, single point]	
CCCc1cc(=O)oc2cc(OCC(=O)NCCc3c[nH]c4ccccc34)ccc12		inconclusive: 16.4 µM [falling, partial curve, poor fit]	

(more compounds)

Compound	lipid storage change, negative = inhibition	Potency	outcome
COc1ccc(-c2csc(NC(=O)C3CC(=O)N(c4ccc5c(c4)OCCO5)C3)n2)cc1 (stereo not given)		inconclusive: 13 µM [falling, partial curve, poor fit]	
CCOC(=O)c1cn2nc(SCc3ccccc3)nc2nc1C		inconclusive: 18.4 µM [falling, single point]	
COc1ccc(Cc2nnc(SCC(=O)NC3(C#N)CCCCC3)n2N)cc1	inconclusive		
CCCC(=O)C1=C(O)C(C(=O)OC)C(C)(C)CC1=NCCc1ccccc1 (stereo not given)	inconclusive: -2.67%		
Cc1cccc(NC(=O)C(=O)NCCCN2CCOCC2)c1	inconclusive: 4.35%		
CC(=O)Nc1ccc(NC(=O)CC2SC(=O)N(CC(=O)c3ccccc3)C2=O)cc1 (stereo not given)		inconclusive: 20.6 µM [activator, single point]	
CC(=O)C1=C(O)C(=O)N(CCC(=O)O)C1c1cccc(F)c1 (stereo not given)	inconclusive: -18.5%		
Cc1ccc(NC(=O)c2cc(S(=O)(=O)c3ccccc3)ccc2Cl)cc1		inconclusive: 5.17 µM [activator, full curve]	
Cc1nnc(-c2ccc(Oc3ccc(C)c(C)c3)c([N+](=O)[O-])c2)o1	inconclusive: 26.7%		
C=CCNC(=S)N/N=C(\C)c1ccc(OC)cc1	inconclusive: 45.7%		
CCN1CCN(CC(O)COc2ccc(C)c(C)c2)CC1 (stereo not given)	inconclusive: 46.1%		
Cc1cc(NC(=O)C(C)SCC(=O)N(C)CC(=O)Nc2ccccc2C(F)(F)F)no1 (stereo not given)	inconclusive		
CCc1ccc(CN2CCN(C(=O)c3ccco3)CC2)cc1	inconclusive: -14.6%		
CC(Sc1nc2sccc2c(=O)n1-c1ccccc1)C(N)=O (stereo not given)	inconclusive: -0.817%		
COC(=O)c1cc2sccc2n1Cc1nc(-c2cccc(Cl)c2)oc1C	inconclusive: 18.4%		
Cc1cc(OCc2cc(C(=O)N(C)C(C)c3ccccn3)no2)cc(C)c1Cl (stereo not given)		inconclusive: 29.1 µM [falling, single point]	
CCOC(=O)c1ccc(-n2ccnc2)c(NC(=O)c2ccc(C(C)(C)C)cc2)c1	inconclusive: 30.4%		
COC(=O)[C@]1(C)N[C@H](c2ccc(-c3ccc(Cl)c(Cl)c3)c(OC)c2)[C@@H]2C(=O)N(C)C(=O)[C@@H]21	inconclusive: -54.7%		
CCOC(=O)c1cc(S(=O)(=O)NCCc2ccccc2)cn1C	inconclusive: -18.8%		
COc1cccc(-c2nc(-c3ccccn3)no2)c1	inactive: 4.98%		
CC1CC(C)(C)N(C(=O)CSc2ccc(-c3ccc(F)cc3)nn2)c2ccccc21 (stereo not given)	inconclusive: -26.9%		
O=C(Nc1nnc(-c2cccs2)s1)c1cccc(F)c1	inconclusive: -49%		
CC(C)[C@H](NC(=O)c1ccc(C(C)(C)C)cc1)C(=O)Nc1nnc(C2CC2)s1	inconclusive: 147%		
Cn1cccc1C1NC(=O)c2c(sc3c2CCC(C(C)(C)C)C3)N1 (stereo not given)		inconclusive: 0.731 µM [cytotoxic, single point]	
COc1ccc(CNc2nc(NCc3ccc(OC)c(OC)c3)n(C(=O)c3cccs3)n2)cc1OC	inconclusive: 15.9%		

Compound	lipid storage change, negative = inhibition	Potency	outcome
CCOC(=O)c1c(C)[nH]c(C(=O)NCc2ccccc2OC)c1C		inconclusive: 23.1 µM [activator, partial curve, poor fit]	
NC(=O)C1CCN(Cc2ccc(OCc3ccccc3)cc2)CC1	inconclusive: 24.5%		
COC(=O)CSc1nc(N)nc(C)c1Br		inconclusive: 29.1 µM [activator, single point]	
O=C(Nc1ccc(N2CCOCC2)cc1)c1ccc([N+](=O)[O-])o1			inactive [at 46.1 µM]
COc1ccc(S(=O)(=O)NCCSC(C)(C)C)c(Cl)c1Cl	inconclusive: 160%		
CCN(CC(=O)NCc1cccs1)C(=O)c1cccc(S(=O)(=O)N2CCc3ccccc32)c1	inconclusive: -27.6%		
CC(=O)N1CCN(c2ccc(Nc3nc(C)nc4c3oc3ccccc34)cc2)CC1	inconclusive: 12.4%		
CCCCCCCC[n+]1cccc(C(=O)N(CC)CC)c1	inconclusive: 40.8%		
CCCC1(c2ccccc2)NC(=O)N(CC(=O)N2CC(=O)Nc3ccccc32)C1=O (stereo not given)	inconclusive: 59.2%		
Cc1cc(C)n(-c2nncn2/N=C/c2ccccc2F)n1	inconclusive: 20.9%		
COc1ccccc1-n1cnnc1SCC(=O)N1CCN(S(=O)(=O)c2ccccc2)CC1		inconclusive: 2.91 µM [rising, single point]	
Cc1cnc(NC(=O)CSc2nnc(COc3c(C)cccc3C)o2)s1	inconclusive: -28.6%		
Cc1cc(N(CC(=O)O)S(C)(=O)=O)ccc1Br	inconclusive: -7.36%		
COc1ccc(-c2nc3cnccn3c2Nc2ccc3c(c2)OCO3)cc1		inconclusive: 8.2 µM [activator, partial curve, poor fit]	
CC(=O)OCC(=O)N1N=C(c2ccc3ccccc3c2)CC1c1ccccc1 (stereo not given)	inconclusive: 13.7%		
CS(=O)(=O)Nc1ccc(C2=NN(C(=O)c3ccco3)C(c3ccco3)C2)cc1 (stereo not given)		inconclusive: 6.51 µM [activator, partial curve, poor fit]	
Cn1c(NC(=O)c2ccco2)cc(=O)n(C)c1=O	inconclusive: -40%		
CNC(=O)c1nnn(Cc2ccccc2)c1NC(C)=O	inconclusive: -19.4%		
C/C(Cl)=C/CSc1nc2c(c(=O)[nH]c(=O)n2C)n1C(C)C		inconclusive: 13 µM [activator, partial curve]	
CC(=O)Nc1ccc(N(C(=O)c2ccco2)C(C(=O)NC2CCCC2)c2ccc(N(C)C)cc2)cc1 (stereo not given)		inconclusive: 25.9 µM [falling, single point]	
COc1ccc(C(=O)COC(=O)c2ccc3c(c2)OCCO3)c(OC)c1		inconclusive: 32.6 µM [falling, single point]	
CCc1ccc(/C=N/NC(=O)c2nnn(-c3nonc3N)c2CN2CCc3ccccc32)cc1	inconclusive: 29.9%		
CCOC(=O)c1cnc(SCC(=O)Nc2nnc(CC)s2)nc1N		inconclusive: 0.184 µM [falling, full curve]	
Nc1nc(SCc2ccccc2Cl)nc2nc3c(cc12)CCCC3	inactive: -0.358%		
O=S(=O)(c1ccc2ccccc2c1)N1CCN(C(=S)Nc2ccc(F)c(Cl)c2)CC1		inconclusive: 16.4 µM [activator, partial curve, poor fit]	
